The list shows a part of the results.

Amino acid sequences for entries named in this document (tags omitted).
UniProt Q0JBA9, entry or part of it: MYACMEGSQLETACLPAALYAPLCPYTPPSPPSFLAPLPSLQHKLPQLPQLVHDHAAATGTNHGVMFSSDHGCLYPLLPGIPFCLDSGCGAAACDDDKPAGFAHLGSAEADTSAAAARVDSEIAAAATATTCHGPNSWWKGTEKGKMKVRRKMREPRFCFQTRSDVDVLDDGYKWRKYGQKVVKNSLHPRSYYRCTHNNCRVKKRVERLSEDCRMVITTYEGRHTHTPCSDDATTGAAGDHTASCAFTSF

The text below walks through data of article PMC7819943, “Rice protein-binding microarrays: a tool to detect cis-acting elements near promoter regions in rice”.

The target in this assay is OsWRKY34 (Oryza sativa, UniProt Q0JBA9 1-250). The assay can be described thus: protein-binding microarray (RPBM); PBS, 2% BSA, 51.3 ng/ul salmon testes DNA, 50 uM zinc acetate, 200 nM TF, 25 C, 1 h; high values mean tight binding. To be noted: protein: recombinant; tags: N-terminal polyhistidine and DsRed monomer fusion (pET32a); label: CyDye5-dUTP incorporated in the synthesized complementary strand; 3' TTTTT single-stranded linker to array surface; dsDNA, one strand shown. The method, boiled down:
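Transcription factors, each fused N-terminally to a polyhistidine tag and DsRed, were expressed in E. coli BL21-CodonPlus and purified on Ni–NTA. A custom Agilent array was made double-stranded by primer extension with Cy5-dUTP and blocked with 2% BSA. It was incubated with 200 nM protein in PBS, 2% BSA, salmon testes DNA and 50 µM zinc acetate at 25 °C for 1 h, then washed. The binding signal is per-feature fluorescence intensity (arbitrary units) read on an Axon 4000B scanner.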
As to “TCGCCTCGCCTCGCCTTCTAGCTCGCGGCCGCCGCTAGCGCGGAGTCACCTAGTGCAG”, the binding signal was 9770 fluorescence intensity (a.u.).

For “TCACAGGTGTGGGTGGGAAGACTTTGACTAGGGTTGGACTCGGAGTCACCTAGTGCAG”, the binding signal was 9130 fluorescence intensity (a.u.). On to “TTTCAGTCCATACTTTCCTGTATCTGACAACACATTTTTTCGGAGTCACCTAGTGCAG”, for which the binding signal was 8830 fluorescence intensity (a.u.). Regarding “ACTTATAGCTACACTCAGTTACTGCATCAAAATTAGATTTCGGAGTCACCTAGTGCAG”, the binding signal was 8290 fluorescence intensity (a.u.). Regarding “GTCCTCCATGAACAGTCCCACCGAGTTGTCTATTTACGTTCGGAGTCACCTAGTGCAG”, the binding signal was 8860 fluorescence intensity (a.u.). As for “CTCAATTTGGACCATCCATTTTCAATCCAACGGCGCGCGACGGAGTCACCTAGTGCAG”, the binding signal is 8350 fluorescence intensity (a.u.).

On to “CATTCCTTGATCGTTCGTTCCCGCCGCGTCGCGACGTCGACGGAGTCACCTAGTGCAG”, for which the binding signal was 8510 fluorescence intensity (a.u.). As to “GACTAATGTGATTTTTTGCCAACCGGACAACTCTAGCAAACGGAGTCACCTAGTGCAG”, the binding signal was 8540 fluorescence intensity (a.u.).

For the sequence “GCATGATCCCAAAGGTGCACTCATCATCCTACTTATCCTTCGGAGTCACCTAGTGCAG”, the binding signal was 10700 fluorescence intensity (a.u.). Regarding “AACTTACCGCTCTCTATGTCCATGTCAACTATCCATGTTACGGAGTCACCTAGTGCAG”, the binding signal was 12500 fluorescence intensity (a.u.). On to “TTTATTTTGTTCGTGACTTCTTTTATTATCAAAATTACTTCGGAGTCACCTAGTGCAG”, for which the binding signal was 8810 fluorescence intensity (a.u.). Take “TACTATTCTTAATATATCGCATTTGCTCTGTAGTATATACCGGAGTCACCTAGTGCAG”: the binding signal is 8340 fluorescence intensity (a.u.). The result for “ATATATATATATATATATATATATATATATATGATGTGCGCGGAGTCACCTAGTGCAG” reads 13600 fluorescence intensity (a.u.). As to “GAGGCAGGGTTTGGCTGTGTTGTTTGGGGCTGGGAACCCTCGGAGTCACCTAGTGCAG”, the binding signal was 13200 fluorescence intensity (a.u.). As for “CTTTTTTCCAAGTTCTTTTTTCTCCTTGGTCTCTAGCTTACGGAGTCACCTAGTGCAG”, the binding signal was 13700 fluorescence intensity (a.u.). With “CCGCGTCCGCGTCCCCGCCGACCTGCGCCACGCGCGCTACCGGAGTCACCTAGTGCAG”, the binding signal was 8740 fluorescence intensity (a.u.). Turning to “ACTTTAGTAAACTCAACCATGTATTATTGGTTTCTGTCTCCGGAGTCACCTAGTGCAG”, the binding signal was 8230 fluorescence intensity (a.u.). Consider “CACCGATTTGCCTCAGCCTCTGTCCGTCTCGCGCGCCGGCCGGAGTCACCTAGTGCAG”, for which the binding signal is 11200 fluorescence intensity (a.u.). As to “AGGTGTTGAAATTGCAGGGTTTGTTTTGGTTAATCAAGAGCGGAGTCACCTAGTGCAG”, the binding signal is 10000 fluorescence intensity (a.u.). For “TGCTTGTACAGTTTCCGGTTTCTTTGCCATTTCGTTTACACGGAGTCACCTAGTGCAG” the value was 20000 fluorescence intensity (a.u.).

With “CGCTTTGTATCCCACACGATCCATTCGCTTCTTCTTCTTCCGGAGTCACCTAGTGCAG”, the binding signal was 14900 fluorescence intensity (a.u.). On to “TCTGTGTAGTTTGTATGGGAGGGGTCCAAAAGCAAAATTACGGAGTCACCTAGTGCAG”, for which the binding signal is 15300 fluorescence intensity (a.u.). The result for “AACTTTCGATGCCATAGAACCAATTTTGCCATCTCCGGTCCGGAGTCACCTAGTGCAG” reads 8260 fluorescence intensity (a.u.); that for “CATGTTAGATGTTTTTTTTCTTGTTACTCTTTTTTATTTTCGGAGTCACCTAGTGCAG”, 13300 fluorescence intensity (a.u.); that for “GATCCGCTCTTGTAGTTGTAGAGCGTTCCATTCCACTTCCCGGAGTCACCTAGTGCAG”, 11800 fluorescence intensity (a.u.). “ACCCAGCCCACTAGCTTATCCTGCGTTATTTTCATCAACTCGGAGTCACCTAGTGCAG”: the binding signal was 12300 fluorescence intensity (a.u.). On to “CGTGAACTTCTCTCGACTCAACCACCATGCCCCATGTCATCGGAGTCACCTAGTGCAG”, for which the binding signal is 8800 fluorescence intensity (a.u.).

Turning to “GCCGCCGCCATTTTTGTTTCTTGGGAGCTCGCCGGTGACGCGGAGTCACCTAGTGCAG”, the binding signal was 9920 fluorescence intensity (a.u.). For the sequence “ACTGAGCCGCTGCCGTCGTTGACCTCCCGGCTGCTCAATCCGGAGTCACCTAGTGCAG”, the binding signal was 10600 fluorescence intensity (a.u.). Turning to “TGGATGATTTTGCCATTTTTTTCATTGCTGGTGCGGTGGTCGGAGTCACCTAGTGCAG”, the binding signal is 8460 fluorescence intensity (a.u.). Consider “GCCCTGCCTTTCAACTACCCTCTACTCGGATCGGACGACGCGGAGTCACCTAGTGCAG”, for which the binding signal was 8930 fluorescence intensity (a.u.). For “GCAATATTCCTCATCCTTGTCATGATGAACTAGTAATTACCGGAGTCACCTAGTGCAG” the value was 10000 fluorescence intensity (a.u.); for “GGTTGGTTTTTGTTCTTGATTTGCTTCATCGATTGGGAGGCGGAGTCACCTAGTGCAG”, 10300 fluorescence intensity (a.u.); for “TCTTAGGTATGGTTTAGTTCTCAATTTTTTTTCCTAAAAACGGAGTCACCTAGTGCAG”, 9490 fluorescence intensity (a.u.). For “TTTTGTCTTCCATATCGCCTCTTTTAGTACTATTTCCCTTCGGAGTCACCTAGTGCAG”, the binding signal was 13700 fluorescence intensity (a.u.). Regarding “TACAGAAGAATCCTCGCTTCTGTTTGTTATTCCACGCTTCCGGAGTCACCTAGTGCAG”, the binding signal is 9450 fluorescence intensity (a.u.).

For the sequence “TCTCCTCTCGAGGCGCACAAGTCCAACACGCTCACCTTCTCGGAGTCACCTAGTGCAG”, the binding signal was 10900 fluorescence intensity (a.u.). As for “CATCATCTCCCCTTGTTGACTCACAATAACACAAACCCATCGGAGTCACCTAGTGCAG”, the binding signal is 8240 fluorescence intensity (a.u.).

Take “TTCCCGGCGAGTTCTGAAATTAGTTTTTTCATTCGTGTCCCGGAGTCACCTAGTGCAG”: the binding signal is 9170 fluorescence intensity (a.u.).

“CTGGTTTTTAATGTTGTTGCTGGGTTATTTCGTTGATTGCCGGAGTCACCTAGTGCAG”: the binding signal is 8350 fluorescence intensity (a.u.). “TATATATATATATATATATATATATATATAGTCACGTCCTCGGAGTCACCTAGTGCAG”: the binding signal was 13800 fluorescence intensity (a.u.). Regarding “TGGTGGCGGCGGTGGCAGTGGTGGTGTTGGGATTGGGGTACGGAGTCACCTAGTGCAG”, the binding signal is 9230 fluorescence intensity (a.u.).
